The results in this text go back to patent US12466841B2, “Substituted pyrrolo[3,4-c]pyridines as HPK1 antagonists” (Nimbus Saturn, Inc., priority 2021, dated 2025).

Protein sequences, listed by entry. Tags and fused reporters are not part of them.
UniProt Q92918, whole entry: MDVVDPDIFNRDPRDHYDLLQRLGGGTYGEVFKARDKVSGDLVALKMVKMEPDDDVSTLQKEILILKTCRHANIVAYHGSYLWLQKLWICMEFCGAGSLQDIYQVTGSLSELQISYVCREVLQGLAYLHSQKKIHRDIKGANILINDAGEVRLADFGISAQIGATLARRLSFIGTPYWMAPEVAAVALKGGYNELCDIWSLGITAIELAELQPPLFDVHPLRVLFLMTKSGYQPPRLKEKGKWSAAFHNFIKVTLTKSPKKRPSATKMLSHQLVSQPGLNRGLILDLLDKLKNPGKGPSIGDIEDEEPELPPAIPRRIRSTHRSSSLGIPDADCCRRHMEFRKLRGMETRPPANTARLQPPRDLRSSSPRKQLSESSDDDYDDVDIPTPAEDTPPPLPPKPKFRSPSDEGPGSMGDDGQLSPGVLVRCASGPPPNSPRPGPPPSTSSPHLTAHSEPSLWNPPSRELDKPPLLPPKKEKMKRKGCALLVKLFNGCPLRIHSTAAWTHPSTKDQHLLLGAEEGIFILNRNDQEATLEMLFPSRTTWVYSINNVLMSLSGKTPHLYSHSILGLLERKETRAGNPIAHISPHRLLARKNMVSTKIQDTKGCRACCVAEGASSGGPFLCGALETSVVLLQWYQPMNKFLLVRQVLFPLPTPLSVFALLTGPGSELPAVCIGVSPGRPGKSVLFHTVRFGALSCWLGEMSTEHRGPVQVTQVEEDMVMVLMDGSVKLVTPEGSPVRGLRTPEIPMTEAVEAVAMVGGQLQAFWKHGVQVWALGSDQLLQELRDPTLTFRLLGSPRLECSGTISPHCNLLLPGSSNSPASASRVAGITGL

The assay deals with HPK1 (Homo sapiens (Human), UniProt Q92918). In words: HPK1 biochemical enzyme assay (microfluidic mobility shift). To be noted: read-out: HPK1 1000UMATP caliper IC50; 1.5 nM HPK1, ATP 1 mM final, 60 min at RT, Caliper EZ Reader. As to the method: HPK1 biochemical enzyme assay: HPK1 enzyme inhibition was measured using a microfluidic mobility shift assay. Reactions were performed in a 384-well plate, containing 1.5 nM HPK1 (Invitrogen), in assay buffer (Cana Biosciences; pH 7.4). Test compounds were titrated in ten point curves (top final assay concentration 3 μM), and preincubated with enzyme/substrate mix for 30 min prior to initiation of the reaction by addition of ATP (1 mM final concentration) and substrate (1 μM final concentration; Carna Biosciences) diluted in assay buffer supplemented by MgCl2 (final assay concentration of 5 mM). Following 60 min incubation at RT, the reaction was terminated by addition of 60 μl/well termination buffer (Carna Biosciences) and signal determination using a Caliper EZ Reader (Perkin Elmer, UK).
Compounds having an activity designated as “A” provided an IC50≤100 nM; compounds having an activity designated as “B” provided an IC50>100 nM.

The structures appear in SMILES notation. The match of structure and compound is tentative.

Turning to `CC(C)(O)[C@@H]1CCCN(c2ccc(Nc3ncc(-c4cnc5cc(F)ccn45)c4c3C(=O)NC4)cc2)C1` (single isomer, unassigned) [Compound I-4], the IC50 is under 100 nM.
